Results reported in patent publication US5356887A, “Pharmaceutical compositions containing insoluble calcium salts of amino-hydroxybutylidene bisphoshonic acids” (Merck & Co., Inc., priority 1993, dated 1994).
Structures can show the parent of a compound that is named as a salt. Where two headings read alike, the source gives them in different places.

Key:
[1] = system: immobilized femur; conditions: suspension vs solution of the (ABP)Na salt
Protocol: (§1) On day 0 all rats underwent surgery whereby the sciatic nerve of the right hind limb was severed. Ten days following immobilization surgery, the rats were sacrificed and hind limbs removed. The femora were defleshed, maximum femoral length of both femora measured and then placed in a muffle furnace at 700° C. for 24 hours.
(§2) mg Diff = difference in ash weight between the intact femur and the
(§3) se = standard error of the mean
(§4) % Bone Loss = ash weight difference between the intact femur and the
(§5) immobilized femur divided by the ash weight of the intact femur

[2] = system: immobilized femur; conditions: suspension vs solution of the (ABP)Na salt; remark: listed apart in the source
Protocol: Immobilization was produced by unilateral hind limb sciatic neurectomy. Ten days after surgery the rats were sacrificed, hind limbs removed, and the femora ashed at 700° C. for 24 hours. Ash weight was determined and the difference between the ash weight of the intact limb and immobilized limb calculated and expressed as the mg difference. Per cent difference was calculated as the % difference in ash weight between the intact and immobilized limb.
as §2, §3, §4, §5

[3] = system: site of injection; conditions: subcutaneous, 1.0 mg P/ml, relative to (ABP)Na solution
Protocol: as §1

[4] = in vivo, sc
[5] = system: soft tissues; conditions: in vivo

SMILES	% bone loss relative to (ABP)Na, in words [1]	% bone loss relative to (ABP)Na, in words [2]	Tendency to induce irritation at the site of injection [3]	Uptake by the liver and excretion by the kidneys [4]	Propensity of causing pain, irritation and damage to soft tissues [5]
NCCCC(O)(P(=O)(O)O)P(=O)(O)O [(ABP)2 Ca, di[(4-amino-1-hydroxybutylidene)-1,1-bisphosphonic acid] monocalcium salt]	less	comparable	lower tendency to induce irritation at the site of injection relative to the solution of the (ABP)Na salt	–	–
NCCCC(O)(P(=O)(O)O)P(=O)(O)O [(ABP)3 Ca4, tri[(4-amino-1-hydroxybutylidene)-1,1-bisphosphonic acid] tetracalcium salt]	less	–	lower tendency to induce irritation at the site of injection relative to the solution of the (ABP)Na salt	–	–
NCCCC(O)(P(=O)(O)O)P(=O)(O)O [(ABP)Ca, [(4-amino-1-hydroxybutylidene)-1,1-bisphosphonic acid] monocalcium salt]	–	comparable	–	lower than in the case of the soluble sodium ASP solution	dramatically lower
